Data source: PubChem BioAssay AID686938 (Drosophila RNAi Screening Center, 2013)
In all, the deposit lists about 23,000 reagents; shown is a random part of those that have a named target and a result. Over the whole deposit, 75 (0.33%) got an active call. 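Raw plate signals without normalisation; calls rest on plate z-scores that were not deposited; ratio present for only 364 wells.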 A plus sign joins genes that one reagent is predicted to hit. No sequences are given here. Not given: the dose of the treatment.

Aim: 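Fly genes required for calcium entry once internal stores are emptied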 (primary screen)
System: Drosophila S2R+ cells
Reagents: long dsRNA against Drosophila genes, about 0.25 µg dsRNA per well, roughly 10,000 cells
Duration: 5 days of knock-down before the calcium assay
Treatment: thapsigargin (SERCA pump blocker) to empty calcium stores; entry signal taken 4 min after adding it
Read-out: 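Duplicate raw fluo-4 intensities per well from a plate reader, at rest and four minutes after thapsigargin emptied calcium stores; entry-to-rest ratio filled for only some wells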
Direction: calcium entry signal: higher = stronger calcium signal after store depletion; entry to resting ratio: higher = more calcium entry relative to resting level; resting calcium signal: higher = higher resting calcium signal
Call rule: 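Called when the plate z-score of the entry-to-rest ratio, mean of duplicates, falls below −3; wells with low overall dye signal (Fmax z below −2) or more than five off-targets excluded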
Calls: active = strongly reduced calcium entry; inactive = no strong reduction

The opening 7 entries, to show the layout:
| Target gene | dsRNA | calcium entry signal, replicate 1 (fluorescence units) | calcium entry signal, replicate 2 (fluorescence units) | entry to resting ratio | resting calcium signal, replicate 1 (fluorescence units) | resting calcium signal, replicate 2 (fluorescence units) | call |
| --- | --- | --- | --- | --- | --- | --- | --- |
| CG32246 | DRSC08115 | 4.22e7 | 3.66e7 | – | 1.77e7 | 1.56e7 | inactive |
| spt4 | DRSC07696 | 3.19e7 | 3.18e7 | – | 1.44e7 | 1.40e7 | inactive |
| Roc1b + Cdc5 | DRSC08687 | 3.49e7 | 3.36e7 | – | 1.92e7 | 1.80e7 | inactive |
| CG11414 | DRSC04110 | 3.88e7 | – | – | 1.91e7 | – | inactive |
| slam | DRSC03240 | 2.88e7 | 3.88e7 | – | 1.49e7 | 1.80e7 | inactive |
| mim | DRSC05013 | 3.47e7 | 3.67e7 | – | 1.88e7 | 1.45e7 | inactive |
| mim | DRSC23045 | 3.88e7 | 4.15e7 | – | 2.13e7 | 1.82e7 | inactive |

Results, from the first entry:
| Target gene | dsRNA | calcium entry signal, replicate 1 (fluorescence units) | calcium entry signal, replicate 2 (fluorescence units) | entry to resting ratio | resting calcium signal, replicate 1 (fluorescence units) | resting calcium signal, replicate 2 (fluorescence units) | call |
| --- | --- | --- | --- | --- | --- | --- | --- |
| CG32246 | DRSC08115 | 4.22e7 | 3.66e7 | – | 1.77e7 | 1.56e7 | inactive |
| spt4 | DRSC07696 | 3.19e7 | 3.18e7 | – | 1.44e7 | 1.40e7 | inactive |
| Roc1b + Cdc5 | DRSC08687 | 3.49e7 | 3.36e7 | – | 1.92e7 | 1.80e7 | inactive |
| CG11414 | DRSC04110 | 3.88e7 | – | – | 1.91e7 | – | inactive |
| slam | DRSC03240 | 2.88e7 | 3.88e7 | – | 1.49e7 | 1.80e7 | inactive |
| mim | DRSC05013 | 3.47e7 | 3.67e7 | – | 1.88e7 | 1.45e7 | inactive |
| mim | DRSC23045 | 3.88e7 | 4.15e7 | – | 2.13e7 | 1.82e7 | inactive |
| Fbxl7 | DRSC15553 | 3.90e7 | 3.37e7 | – | 1.76e7 | 4.90e7 | inactive |
| CG14864 | DRSC14987 | 3.99e7 | 5.06e7 | – | 2.17e7 | 7.96e7 | inactive |
| Cyp4e1 | DRSC07370 | 4.37e7 | 3.74e7 | – | 2.06e7 | 1.92e7 | inactive |
| IscU | DRSC16572 | 4.79e7 | 3.08e7 | – | 2.26e7 | 1.59e7 | inactive |
| HUWE1 | DRSC20089 | 2.89e7 | 3.35e7 | – | 1.55e7 | 1.43e7 | inactive |
| Hakai | DRSC02031 | 5.29e7 | – | – | 2.53e7 | – | inactive |
| CG3868 | DRSC10380 | 2.32e7 | 3.23e7 | – | 1.15e7 | 2.28e7 | inactive |
| key | DRSC04285 | 4.66e7 | – | – | 2.28e7 | – | inactive |
| CG30479 | DRSC06735 | 2.70e7 | 4.50e7 | – | 1.40e7 | 1.79e7 | inactive |
| Dcr-2 | DRSC06992 | 4.93e7 | 5.51e7 | – | 2.14e7 | 2.41e7 | inactive |
| CG13251 | DRSC11699 | 3.00e7 | 5.09e7 | – | 1.44e7 | 2.29e7 | inactive |
| tum | DRSC07575 | 3.32e7 | 3.64e7 | – | 2.11e7 | 2.35e7 | active |
| CG13097 | DRSC02199 | 2.69e7 | – | – | 1.63e7 | – | inactive |
| CG11970 | DRSC14157 | 2.79e7 | 3.64e7 | – | 1.34e7 | 1.73e7 | inactive |
| Gem2 | DRSC09721 | 4.11e7 | 5.04e7 | – | 1.83e7 | 3.28e7 | inactive |
| Trxr2 | DRSC11900 | 3.04e7 | 5.30e7 | – | 1.49e7 | 2.40e7 | inactive |
| CG31827 + CG18478 | DRSC01958 | 4.97e7 | 3.62e7 | – | 2.17e7 | 1.61e7 | inactive |
| PPO2 | DRSC07102 | 5.59e7 | 3.71e7 | – | 2.44e7 | 1.80e7 | inactive |
| Vang | DRSC07570 | 3.82e7 | 3.14e7 | – | 1.83e7 | 1.41e7 | inactive |
| CG7025 | DRSC03002 | 3.99e7 | 3.05e7 | – | 2.00e7 | 1.46e7 | inactive |
| CG8188 | DRSC20090 | 2.99e7 | 3.28e7 | – | 1.60e7 | 1.66e7 | inactive |
| Pkn | DRSC06809 | 2.54e7 | 2.36e7 | – | 1.08e7 | 1.16e7 | inactive |
| Pkn | DRSC06810 | 4.64e7 | 4.32e7 | – | 2.21e7 | 1.89e7 | inactive |
| CG8679 | DRSC03109 | 5.50e7 | 4.56e7 | – | 2.43e7 | 2.19e7 | inactive |
| Sirt4 | DRSC18290 | 3.39e7 | 4.21e7 | – | 1.58e7 | 2.06e7 | inactive |
| Abp1 | DRSC09693 | 3.16e7 | 4.69e7 | – | 1.74e7 | 2.14e7 | inactive |
| CG11413 + CG4622 | DRSC04109 | 4.22e7 | 4.92e7 | – | 2.07e7 | 2.07e7 | inactive |
| Afti | DRSC16440 | 3.05e7 | 2.95e7 | – | 1.41e7 | 1.36e7 | inactive |
| Adgf-D | DRSC16521 | 3.26e7 | 4.93e7 | – | 1.64e7 | 7.53e7 | inactive |
| MAGE | DRSC12504 | 4.79e7 | 4.14e7 | – | 2.43e7 | 1.97e7 | inactive |
| PolZ1 | DRSC06800 | 3.28e7 | 3.06e7 | – | 1.42e7 | 1.42e7 | inactive |
| CG15107 | DRSC06534 | 4.80e7 | 4.49e7 | – | 2.12e7 | 2.25e7 | inactive |
| xit | DRSC18364 | 3.18e7 | 3.76e7 | – | 1.52e7 | 1.67e7 | inactive |
| Hsp60B | DRSC00542 | 4.35e7 | – | – | 2.04e7 | – | inactive |
| Loxl2 | DRSC04469 | 3.44e7 | – | – | 1.68e7 | – | inactive |
| CG4988 | DRSC02800 | 4.59e7 | 5.18e7 | – | 2.27e7 | 2.24e7 | inactive |
| Tsp33B | DRSC02418 | 3.24e7 | 4.86e7 | – | 1.73e7 | 2.09e7 | inactive |
| Abd-B | DRSC14098 | 2.89e7 | 5.12e7 | – | 1.46e7 | 6.36e7 | inactive |
| Abd-B | DRSC14337 | 2.80e7 | 6.03e7 | – | 1.50e7 | 6.35e7 | inactive |
| Dscam4 | DRSC08911 | 2.43e7 | 2.56e7 | – | 1.32e7 | 1.16e7 | inactive |
| Dscam4 | DRSC08913 | 2.69e7 | 4.67e7 | – | 1.35e7 | 2.14e7 | inactive |
| Dscam4 | DRSC10031 | 1.70e7 | 3.73e7 | – | 9.19e6 | 1.65e7 | inactive |
| Dscam4 | DRSC10329 | 1.20e7 | 2.29e7 | – | 7.84e6 | 1.31e7 | inactive |
| Dscam4 | DRSC10765 | 2.29e7 | 4.00e7 | – | 1.21e7 | 1.92e7 | inactive |
| CG10492 | DRSC02064 | 3.32e7 | – | – | 2.20e7 | – | inactive |
| CG14422 | DRSC17919 | 6.38e7 | 6.01e7 | 2.1 | 3.08e7 | 2.42e7 | inactive |
| mRpL27 | DRSC22568 | 4.49e7 | 4.27e7 | – | 1.97e7 | 1.59e7 | inactive |
| lncRNA:bxd | DRSC13176 | 4.24e7 | 3.27e7 | – | 2.23e7 | 1.60e7 | inactive |
| Gld | DRSC12595 | 4.18e7 | 4.69e7 | – | 2.08e7 | 2.04e7 | inactive |
| E(spl)m3-HLH | DRSC16694 | 2.40e7 | 4.38e7 | – | 1.56e7 | 2.33e7 | inactive |
| E(spl)m3-HLH | DRSC23160 | 5.04e7 | 2.30e7 | – | 2.38e7 | 1.06e7 | inactive |
